This is an account of results in publication PMC5973619.

By UniProt entry, the sequences of proteins in these tests, tags left out.
UniProt O94901: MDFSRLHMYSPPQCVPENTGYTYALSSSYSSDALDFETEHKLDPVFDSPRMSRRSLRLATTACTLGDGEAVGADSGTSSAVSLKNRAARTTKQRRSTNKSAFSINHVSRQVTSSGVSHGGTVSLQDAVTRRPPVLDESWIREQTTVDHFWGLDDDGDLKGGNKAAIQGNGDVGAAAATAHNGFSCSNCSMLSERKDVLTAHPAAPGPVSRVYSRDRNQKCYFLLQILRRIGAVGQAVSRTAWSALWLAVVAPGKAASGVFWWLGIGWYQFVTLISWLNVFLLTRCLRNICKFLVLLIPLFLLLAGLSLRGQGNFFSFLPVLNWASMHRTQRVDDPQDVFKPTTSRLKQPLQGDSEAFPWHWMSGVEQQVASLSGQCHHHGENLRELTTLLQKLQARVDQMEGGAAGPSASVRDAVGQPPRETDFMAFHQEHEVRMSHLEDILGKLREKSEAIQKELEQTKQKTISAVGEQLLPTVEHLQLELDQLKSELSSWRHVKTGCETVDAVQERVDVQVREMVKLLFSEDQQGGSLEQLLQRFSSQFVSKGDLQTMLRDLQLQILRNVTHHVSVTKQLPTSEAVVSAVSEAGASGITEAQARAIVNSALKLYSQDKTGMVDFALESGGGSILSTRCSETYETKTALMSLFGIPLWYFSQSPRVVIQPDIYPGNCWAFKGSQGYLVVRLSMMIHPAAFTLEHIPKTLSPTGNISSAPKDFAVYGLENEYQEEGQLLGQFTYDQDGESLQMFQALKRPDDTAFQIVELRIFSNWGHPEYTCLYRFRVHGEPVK

Read-outs that look alike come from different tables or passages of the source. These are yes or no findings as the source states them, for the method shown. Binding seen in cells or lysates may run through a third protein. Some binding calls cover weakened binding; strength is not graded here. For some of these results: Tags and fused reporters may be left off the sequences shown.

Assay [1] concerns the target Nesprin2 (human (endogenous in HeLa and RPE-1)) (UniProt Q8WXH0). The assay is described as follows: co-IP; 2 ug Nesprin1 or Nesprin2 antibody and protein A/G beads on RIPA lysate of isolated nuclei of HeLa cells (unperturbed, or stable lines induced with doxycycline: GFP-SR-KASH, HA-mSun2, HA-Sun1 forms); blot for SUN proteins.
In assay [2] the target is Nesprin1 (human (endogenous in HeLa)) (UniProt Q8NF91). The description is as above.
The target of assay [3] is Sun1 (human (endogenous in HeLa)) (UniProt O94901). Put plainly: cross-linking; HeLa cells in PBS containing .5% formaldehyde for 10min room temperature before lysis; reducing SDS-PAGE and blot for Sun1 and Sun2.
The target in assay [4] is Nesprin2 (human (endogenous in HeLa and RPE-1)) (UniProt Q8WXH0). Put plainly: co-IP; 2 ug Nesprin1 or Nesprin2 antibody and protein A/G beads on RIPA lysate of isolated nuclei of HeLa cells (unperturbed, or stable lines induced with doxycycline: GFP-SR-KASH, HA-mSun2, HA-Sun1 forms); blot for SUN proteins. This is another data set of the same source.

With Sun1 (from UniProt O94901 1-785), the binding entry in assay [1], in assay [2] and in assay [3] was “binds” throughout.

B1: HA-mSun2 (protein, UniProt Q8BJS4 1-731)
chain: MSRRSQRLTRYSQDDNDGGSSSSGASSVAGSQGTVFKDSPLRTLKRKSSNMKHLSPAPQLGPSSDSHTSYYSESVVRESYIGSPRAVSLARSALLDDHLHSEPYWSGDLRGRRRRGTGGSESSKANGLTAESKASEDFFGSSSGYSSEDDLAGYTDSDQHSSGSRLRSAASRAGSFVWTLVTFPGRLFGLLYWWIGTTWYRLTTAASLLDVFVLTRSRHFSLNLKSFLWFLLLLLLLTGLTYGAWHFYPLGLQTLQPAVVSWWAAKESRKQPEVWESRDASQHFQAEQRVLSRVHSLERRLEALAADFSSNWQKEAIRLERLELRQGAAGHGGGSSLSHEDALSLLEGLVSRREATLKEDLRRDTVAHIQEELATLRAEHHQDSEDLFKKIVQASQESEARVQQLKTEWKSMTQEAFQESSVKELGRLEAQLASLRQELAALTLKQNSVADEVGLLPQKIQAARADVESQFPDWIRQFLLGDRGARSGLLQRDEMHAQLQELENKILTKMAEMQGKSAREAAASLGQILQKEGIVGVTEEQVHRIVKQALQRYSEDRIGMVDYALESGGASVISTRCSETYETKTALLSLFGIPLWYHSQSPRVILQPDVHPGNCWAFQGPQGFAVVRLSARIRPTAVTLEHVPKALSPNSTISSAPKDFAIFGFDEDLQQEGTLLGTFAYDQDGEPIQTFYFQASKMATYQVVELRILTNWGHPEYTCIYRFRVHGEPAH
As to B1, in assay [4], the binding result is listed as “binds”.
